Laboratory results from PMC9254885.
These are yes or no findings as the source states them, for the method shown. Binding seen in cells or lysates may run through a third protein. Some binding calls cover weakened binding; strength is not graded here. Where a sequence is shown, tags or fusion partners need not be part of it.

Target: T1, FLAG-tagged CPS1 (carbamoyl phosphate synthetase 1) (human) (UniProt P31327)
T1 sequence: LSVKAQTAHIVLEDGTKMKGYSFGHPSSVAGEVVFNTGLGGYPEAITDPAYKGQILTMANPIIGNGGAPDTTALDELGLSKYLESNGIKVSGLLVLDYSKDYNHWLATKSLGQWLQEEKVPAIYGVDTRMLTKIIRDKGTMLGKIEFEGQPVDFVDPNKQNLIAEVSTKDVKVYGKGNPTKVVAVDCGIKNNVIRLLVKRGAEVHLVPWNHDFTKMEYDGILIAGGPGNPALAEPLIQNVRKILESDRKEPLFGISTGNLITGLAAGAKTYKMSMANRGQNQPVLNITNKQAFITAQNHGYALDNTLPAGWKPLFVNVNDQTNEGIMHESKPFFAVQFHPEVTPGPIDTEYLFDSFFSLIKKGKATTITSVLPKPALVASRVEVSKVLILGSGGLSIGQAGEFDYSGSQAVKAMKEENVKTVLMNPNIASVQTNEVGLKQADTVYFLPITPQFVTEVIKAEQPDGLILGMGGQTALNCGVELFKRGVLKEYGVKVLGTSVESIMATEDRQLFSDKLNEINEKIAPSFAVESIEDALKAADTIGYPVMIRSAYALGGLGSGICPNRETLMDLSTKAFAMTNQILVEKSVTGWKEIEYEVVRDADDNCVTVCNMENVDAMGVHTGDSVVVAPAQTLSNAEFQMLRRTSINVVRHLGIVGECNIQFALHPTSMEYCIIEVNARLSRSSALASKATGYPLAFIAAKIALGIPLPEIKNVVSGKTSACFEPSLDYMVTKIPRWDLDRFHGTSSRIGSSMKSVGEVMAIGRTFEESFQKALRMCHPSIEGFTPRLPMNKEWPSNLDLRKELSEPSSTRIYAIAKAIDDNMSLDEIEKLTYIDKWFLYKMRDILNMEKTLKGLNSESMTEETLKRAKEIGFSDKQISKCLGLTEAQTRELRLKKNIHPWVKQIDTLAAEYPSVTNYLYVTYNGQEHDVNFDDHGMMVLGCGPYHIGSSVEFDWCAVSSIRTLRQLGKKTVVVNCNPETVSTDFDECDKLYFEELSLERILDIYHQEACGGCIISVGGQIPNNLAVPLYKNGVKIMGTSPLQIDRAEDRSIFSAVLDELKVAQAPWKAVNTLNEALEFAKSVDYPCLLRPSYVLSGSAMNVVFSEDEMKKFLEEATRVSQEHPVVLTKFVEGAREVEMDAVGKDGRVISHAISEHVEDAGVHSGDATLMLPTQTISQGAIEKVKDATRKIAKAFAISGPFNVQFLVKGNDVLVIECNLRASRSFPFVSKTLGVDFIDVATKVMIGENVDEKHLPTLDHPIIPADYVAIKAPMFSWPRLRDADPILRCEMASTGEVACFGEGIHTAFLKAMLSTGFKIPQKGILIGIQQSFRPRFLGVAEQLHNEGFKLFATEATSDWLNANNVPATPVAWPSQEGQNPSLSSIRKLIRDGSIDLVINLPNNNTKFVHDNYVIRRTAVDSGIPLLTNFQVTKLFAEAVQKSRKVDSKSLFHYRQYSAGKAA
Experiment: co-IP; 293T cells transfected with Myc-tagged OGT and/or FLAG-tagged CPS1; co-IP with anti-Myc and anti-FLAG antibody

B1: Myc-tagged OGT (O-GlcNAc transferase), wild type (enzyme, UniProt O15294 1-1046)
chain: MASSVGNVADSTEPTKRMLSFQGLAELAHREYQAGDFEAAERHCMQLWRQEPDNTGVLLLLSSIHFQCRRLDRSAHFSTLAIKQNPLLAEAYSNLGNVYKERGQLQEAIEHYRHALRLKPDFIDGYINLAAALVAAGDMEGAVQAYVSALQYNPDLYCVRSDLGNLLKALGRLEEAKACYLKAIETQPNFAVAWSNLGCVFNAQGEIWLAIHHFEKAVTLDPNFLDAYINLGNVLKEARIFDRAVAAYLRALSLSPNHAVVHGNLACVYYEQGLIDLAIDTYRRAIELQPHFPDAYCNLANALKEKGSVAEAEDCYNTALRLCPTHADSLNNLANIKREQGNIEEAVRLYRKALEVFPEFAAAHSNLASVLQQQGKLQEALMHYKEAIRISPTFADAYSNMGNTLKEMQDVQGALQCYTRAIQINPAFADAHSNLASIHKDSGNIPEAIASYRTALKLKPDFPDAYCNLAHCLQIVCDWTDYDERMKKLVSIVADQLEKNRLPSVHPHHSMLYPLSHGFRKAIAERHGNLCLDKINVLHKPPYEHPKDLKLSDGRLRVGYVSSDFGNHPTSHLMQSIPGMHNPDKFEVFCYALSPDDGTNFRVKVMAEANHFIDLSQIPCNGKAADRIHQDGIHILVNMNGYTKGARNELFALRPAPIQAMWLGYPGTSGALFMDYIITDQETSPAEVAEQYSEKLAYMPHTFFIGDHANMFPHLKKKAVIDFKSNGHIYDNRIVLNGIDLKAFLDSLPDVKIVKMKCPDGGDNADSSNTALNMPVIPMNTIAEAVIEMINRGQIQITINGFSISNGLATTQINNKAATGEEVPRTIIVTTRSQYGLPEDAIVYCNFNQLYKIDPSTLQMWANILKRVPNSVLWLLRFPAVGEPNIQQYAQNMGLPQNRIIFSPVAPKEEHVRRGQLADVCLDTPLCNGHTTGMDVLWAGTPMVTMPGETLASRVAASQLTCLGCLELIAKNRQEYEDIAVKLGTDLEYLKKVRGKVWKQRISSPLFNTKQYTMELERLYLQMWEHYAAGNKPDHMIKPVEVTESA
  binding: binds
